Reference: patent publication US20240173439A1, “FLUORINE-CONTAINING COMPOUND AND CONTRAST MEDIUM” (TDK CORPORATION, priority 2021, published 2024)

Test: T1-weighted 19F-MRI phantom images in deuterated chloroform solution
Conditions: 5 mM and 10 mM deuterated chloroform solutions; TR=1500 ms, TE=12 ms

Structure (SMILES): CC1(C)CC(OCCCCOC(C(F)(F)F)(C(F)(F)F)C(F)(F)F)CC(C)(C)N1[O] [Compound 11, 4-(4-((1,1,1,3,3,3-hexafluoro-2-(trifluoromethyl)propane-2-yl)oxy)butoxy)-2,2,6,6-tetra methylpiperidine-1-oxyl]
- Brightness of T1-weighted 19F-MRI image versus Comparative Example 1 (compound A1): brighter
